Assay results taken from PMC6337506.
These are yes or no findings as the source states them, for the method shown. Binding can be weak; no strength is given. Tags and fused reporters may be left off the sequences shown.

Amino acid sequences for entries named in this document (tags omitted). A change or cut given only in a name is not applied to a line headed by its entry.
UniProt O64817: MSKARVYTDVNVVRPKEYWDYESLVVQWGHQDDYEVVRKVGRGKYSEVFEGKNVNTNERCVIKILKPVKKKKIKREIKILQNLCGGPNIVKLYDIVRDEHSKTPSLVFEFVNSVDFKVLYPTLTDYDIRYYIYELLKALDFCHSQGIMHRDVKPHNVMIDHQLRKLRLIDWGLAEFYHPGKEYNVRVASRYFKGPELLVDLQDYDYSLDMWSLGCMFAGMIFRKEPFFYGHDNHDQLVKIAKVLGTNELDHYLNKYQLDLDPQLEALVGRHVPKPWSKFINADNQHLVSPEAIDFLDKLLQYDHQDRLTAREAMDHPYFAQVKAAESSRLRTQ

B1: ∆AtCKA1(aa25-409) fused to the GAL4 activation domain (domain or fragment, UniProt Q08467 25-409)
chain: AVLALRAPTAHSPILRSSIVTPTARAVSEVSGCTTIDPDFLVEISDSNQTRAMSKARVYTEVNVIRPKDYWDYESLIVQWGEQDDYEVVRKVGRGKYSEVFEGINVNSKEKCIIKILKPVKKKKIRREIKILQNLCGGPNIVKLLDVVRDQHSKTPSLIFEYVNSTDFKVLYPTLTDYDIRYYIYELLKALDFCHSQGIMHRDVKPHNVMIDHELRKLRLIDWGLAEFYHPGKEYNVRVASRYFKGPELLVDLQDYDYSLDMWSLGCMFAGMIFRKEPFFYGHDNQDQLVKIAKVLGTDELNAYLNKYQLELDPQLEALVGRHSRKPWSKFINADNQHLVSPEAIDFLDKLLRYDHQDRLTAKEAMAHAYFAQVRAAETSRMRSQ
B2: ∆AtCKA2(aa32-403) fused to the GAL4 activation domain (domain or fragment, UniProt Q08466 32-403)
chain: LIPPLTCVNTGTVESDVTGIRFDRCLDTDSLAKISLSTVMSKARVYTDVNVIRPKDYWDYESLNVQWGEQDDYEVVRKVGRGKYSEVFEGINMNNNEKCIIKILKPVKKKKIRREIKILQNLCGGPNIVKLLDVVRDQHSKTPSLIFEYVNSTDFKVLYPTLTDYDIRYYIYELLKALDFCHSQGIMHRDVKPHNVMIDHELRKLRLIDWGLAEFYHPGKEYNVRVASRYFKGPELLVDLQDYDYSLDMWSLGCMFAGMIFRKEPFFYGHDNQDQLVKIAKVLGTDELNAYLNKYQLELDTQLEALVGRHSRKPWSKFINADNRHLVSPEAIDYLDKLLRYDHQDRLTAKEAMAHPYFAQVRAAESSRMRTQ

How the values were obtained:
[1] = biological target: TACO LEAF (TCO) fused to the GAL4 DNA-binding domain (Arabidopsis thaliana) (UniProt Q5XV74); assay: two-hybrid; directed yeast two-hybrid; TCO fused to the GAL4 DNA-binding domain, CK2 alpha subunits fused to the GAL4 activation domain; positive interactions indicated by blue coloration
[2] = biological target: TACO LEAF (TCO) fused to the GAL4 DNA-binding domain (Arabidopsis thaliana) (UniProt Q5XV74); assay: two-hybrid; yeast two-hybrid screen; TCO as bait, Arabidopsis floral cDNA library as prey; 1.7 × 10^6 yeast transformants

Molecule | binding [1] | binding [2]
AtCKA3(full-length) fused to the GAL4 activation domain (from UniProt O64817) | no binding | –
B1 | binds | binds
B2 | binds | binds
